# Source: the supplement of paper PMC12067093, “Discovery and optimisation of a covalent ligand for TRIM25 and its application to targeted protein ubiquitination” (Chemical Science, 2025)
# This is one part of the list.
# Target: T1, POLL_Q9UGP5_73_QIVQHGGQLCPAQGPGVTHIVVDEGMDYER (UniProt Q9UGP5)
# T1 sequence (whole entry): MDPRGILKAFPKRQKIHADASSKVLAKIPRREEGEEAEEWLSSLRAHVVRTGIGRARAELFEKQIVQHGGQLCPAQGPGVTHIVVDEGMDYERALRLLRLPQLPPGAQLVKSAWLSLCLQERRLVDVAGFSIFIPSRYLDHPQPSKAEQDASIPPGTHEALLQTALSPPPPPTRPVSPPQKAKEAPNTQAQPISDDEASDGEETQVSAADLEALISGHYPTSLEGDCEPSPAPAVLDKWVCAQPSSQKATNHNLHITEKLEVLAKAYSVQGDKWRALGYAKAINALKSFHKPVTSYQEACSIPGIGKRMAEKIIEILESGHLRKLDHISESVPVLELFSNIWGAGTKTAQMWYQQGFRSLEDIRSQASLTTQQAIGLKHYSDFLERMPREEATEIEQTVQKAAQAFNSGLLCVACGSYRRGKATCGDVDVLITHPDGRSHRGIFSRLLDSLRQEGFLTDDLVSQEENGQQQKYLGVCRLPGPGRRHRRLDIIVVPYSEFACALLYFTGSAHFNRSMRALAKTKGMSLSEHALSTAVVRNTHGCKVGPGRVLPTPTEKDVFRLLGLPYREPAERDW
# Assay: probe-labelled cysteine peptide fold change vs DMSO (competition) (log2 fold change); higher = less target engagement (more negative = stronger competition)
# Conditions: THP-1, incubation time: 4 h
# 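Also: competitive chemoproteomic profiling in live THP-1 cells with an iodoacetamide desthiobiotin (IA-DTB) probe, comparing probe-labelled peptide intensities in compound-treated cells against DMSO-treated controls.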
smiles,measurement,setting,value
CC1Cc2ccccc2N1C(=O)C1CCCN(C(=O)CCl)C1 (mixture of isomers) [TRIM25 ligand 11 (diastereomer mixture)],probe-labelled cysteine peptide fold change,10 µM,-0.0542
same,probe-labelled cysteine peptide fold change,50 µM,0.496
